Paper doi:10.1101/699934
No constants are given. Whether binding was seen depends on the method and setting. In cells and extracts the contact can be indirect. Some binding calls cover weakened binding; strength is not graded here.

The chains behind the UniProt entries cited, without tags or fusion partners.
UniProt Q86B53: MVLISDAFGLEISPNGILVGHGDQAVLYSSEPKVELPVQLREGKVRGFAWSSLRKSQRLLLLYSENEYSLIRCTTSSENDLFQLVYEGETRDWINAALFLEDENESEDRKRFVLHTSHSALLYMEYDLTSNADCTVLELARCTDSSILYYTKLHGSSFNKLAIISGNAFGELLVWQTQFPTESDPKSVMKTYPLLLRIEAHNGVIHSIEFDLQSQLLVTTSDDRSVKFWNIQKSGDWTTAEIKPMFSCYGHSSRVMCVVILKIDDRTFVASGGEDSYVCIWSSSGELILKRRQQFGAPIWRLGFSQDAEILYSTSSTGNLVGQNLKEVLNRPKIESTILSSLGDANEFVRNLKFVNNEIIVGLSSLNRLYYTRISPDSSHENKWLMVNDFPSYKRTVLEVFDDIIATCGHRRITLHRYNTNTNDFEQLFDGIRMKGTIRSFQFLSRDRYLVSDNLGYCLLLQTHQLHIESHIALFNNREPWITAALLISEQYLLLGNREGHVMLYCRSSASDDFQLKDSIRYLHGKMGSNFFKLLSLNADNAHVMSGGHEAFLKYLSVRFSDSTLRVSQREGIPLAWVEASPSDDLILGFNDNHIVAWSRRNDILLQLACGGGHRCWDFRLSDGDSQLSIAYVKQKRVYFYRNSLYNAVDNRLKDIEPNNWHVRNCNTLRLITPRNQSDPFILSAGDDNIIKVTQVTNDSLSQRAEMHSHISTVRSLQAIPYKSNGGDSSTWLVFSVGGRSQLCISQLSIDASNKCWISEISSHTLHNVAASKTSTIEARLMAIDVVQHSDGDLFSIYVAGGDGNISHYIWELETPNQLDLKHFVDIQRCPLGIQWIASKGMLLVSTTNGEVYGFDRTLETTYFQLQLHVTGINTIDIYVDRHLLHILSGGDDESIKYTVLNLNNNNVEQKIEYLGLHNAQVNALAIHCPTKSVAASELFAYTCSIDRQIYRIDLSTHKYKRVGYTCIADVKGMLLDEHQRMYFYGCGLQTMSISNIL
UniProt Q9VDD9: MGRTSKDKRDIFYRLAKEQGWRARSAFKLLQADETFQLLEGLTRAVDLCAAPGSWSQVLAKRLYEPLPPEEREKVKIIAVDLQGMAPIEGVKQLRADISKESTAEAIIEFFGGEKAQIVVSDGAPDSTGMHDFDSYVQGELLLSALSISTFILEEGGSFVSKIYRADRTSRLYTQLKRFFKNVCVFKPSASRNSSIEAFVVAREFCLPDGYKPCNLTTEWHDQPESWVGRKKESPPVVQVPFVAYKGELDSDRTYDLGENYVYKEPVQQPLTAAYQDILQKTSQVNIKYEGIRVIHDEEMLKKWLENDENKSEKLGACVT

Molecular target: FLAG::CG33172 (Drosophila melanogaster) (UniProt Q86B53)
Assay: co-IP

**Q.** For “GST::CG7009 (from UniProt Q9VDD9 1-320) (enzyme)”, which binding is on record?
**A.** binds
